At least one peptide structure holds a part that was inferred or is arguable (an end, a ring closure or a residue). Some of these results come from one statement about several compounds together. Where a SMILES comes first, the peptide text is derived from it.
Key:
Format in all cases: in vivo
[1] = test system: zebrafish (Danio rerio); test: Light/Dark Box (LDB) test
Method: The tested substances were injected into the zebrafish intraperitoneally using an insulin syringe (0.5 ml, 30 g) 10 minutes before the test (15 min before for ketamine only, according to the literature data). The saline solution (0.9% NaCl) was used as a solvent. Anesthesia and immobilization of the animals were achieved by placing them in water at a temperature of 10° C. Control group fish received intraperitoneal injections of an equivalent volume of solvent, also after going through a pre-cooling procedure.
The setup for the Light/Dark preference test consisted of three main parts: a launch compartment, a light compartment made of white plastic, and a dark compartment made of black plastic. The bright lighting in these tests was provided by a lamp on a stand (LED lamp PL, 11 W, light flux≈600 Lm, about 500 Lx directly above the water surface), which was attached to the upper part of the aquarium.
The light/dark box (LDB) test was performed as previously described (Maximino et al. (2011). Pharmacological analysis of zebrafish (Danio rerio) scototaxis. Prog. Neuro-Psychopharmacol. Biol. Psychiatry. 35(2): 624-631). The zebrafish was placed in a light compartment of an LDB using a net, the camera was switched on simultaneously, and the behavior of the zebrafish was recorded for 5 minutes. The video was processed using RealTimer (OpenScience). During the processing of records, the residence time and the number of visits to the light and dark compartments of the test setup were recorded, as well as the latent period of visiting both compartments.

[2] = test system: Sprague-Dawley rats; test: Open Field test (OF), rats, intranasal; conditions: for distance traveled: 30 minutes; for increase of distance traveled: 0.1, 0.3 and 1 mg/kg i.n.
[3] = test system: Wistar rats; test: Beam Walking test (BWT); conditions: 0.1 mg/kg i.n.
[4] = test system: Wistar rats; test: Spontaneous motor activity (SMA), Activiscop; conditions: 5 mg/kg i.n.

For `CC(C)[C@H](NC(=O)[C@H](CC(=O)O)NC(=O)[C@H](CCC(=O)O)NC(=O)[C@@H](N)CCCCN)C(=O)O` [KEDV] (H-KEDV-OH; N-terminus and C-terminus assumed), the “behavior in LDB test” value ([1]; 0.5 mg/kg i.p.) was “did not change the behavior”, the “entries to the light” value ([1]; 1 mg/kg i.p.) was “significant increase of entries to the light” and the “time spent in the light compartment” value ([1]; 1 mg/kg i.p.) was “increased time spent in the light compartment”. The “time spent in the light compartment” value ([1]; 10 mg/kg i.p.) was “decreased time spent in the light compartment”, the distance traveled ([2]; 0.1 mg/kg i.n.) was 3920±134.8 cm and the distance traveled ([2]; 0.3 mg/kg i.n.) was 3879±73.7 cm. The distance traveled ([2]; 1 mg/kg i.n.) was 3769±164.7 cm, the “increase of distance traveled” value [2] was “more than 15%” and the “severity of sensorimotor deficits in the front paws” value [3] was “reduced severity of sensorimotor deficits”. For the same compound, the “interval of mild stimulating effect on spontaneous motor activity” value [4] was 40 to 100 min.

`C[C@H](NC(=O)[C@@H](N)CCCNC(=N)N)C(=O)N[C@@H](Cc1c[nH]cn1)C(=O)N[C@@H](CCC(=O)O)C(=O)O` [RAHE] (H-RAHE-OH; N-terminus and C-terminus assumed) was tested, and the “behavior in LDB test” value ([1]; 0.5 mg/kg i.p.) was “did not show any behavioral effects”, the “behavior in LDB test” value ([1]; 1 mg/kg i.p.) was “did not show any behavioral effects” and the distance traveled ([2]; 0.1 mg/kg i.n.) was 3835±80.6 cm. For the same compound, the distance traveled ([2]; 0.3 mg/kg i.n.) was 3838±137.2 cm, the distance traveled ([2]; 1 mg/kg i.n.) was 3651±108.7 cm and the “increase of distance traveled” value [2] was “more than 15%”. The “interval of mild stimulating effect on spontaneous motor activity” value [4] was 10 to 100 min.
